Laboratory results: US11040954B1, “CXCR3 receptor agonists” (RECEPTOS LLC, priority 2016, dated 2021)
The match of structure and compound is tentative.

Amino acid sequences for entries named in this document (tags omitted).
UniProt P49682, whole entry: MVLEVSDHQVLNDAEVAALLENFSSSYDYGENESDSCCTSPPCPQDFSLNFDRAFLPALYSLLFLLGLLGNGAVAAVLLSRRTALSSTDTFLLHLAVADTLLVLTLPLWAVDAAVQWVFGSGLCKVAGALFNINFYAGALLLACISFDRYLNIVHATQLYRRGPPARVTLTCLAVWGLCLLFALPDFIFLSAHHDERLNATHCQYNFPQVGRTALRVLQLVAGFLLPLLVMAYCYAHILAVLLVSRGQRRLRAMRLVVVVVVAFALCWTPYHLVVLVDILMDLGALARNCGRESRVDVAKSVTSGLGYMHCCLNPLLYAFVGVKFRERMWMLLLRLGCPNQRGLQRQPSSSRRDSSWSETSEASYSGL

Target: CXCR3 (Homo sapiens, UniProt P49682)
Assay: CXCR3 cAMP agonist assay (cAMP Hunter CHOK1 CXCR3 Gi cell line, forskolin-stimulated, HitHunter cAMP detection)
Conditions: read-out: Activity (CXCR3 cAMP agonist assay compound EC50); cAMP Hunter CHOK1 CXCR3 Gi cells, 20 μM forskolin, 30 minutes
Method: The cAMP Hunter™ CHOK1 CXCR3 Gi cell line was purchased from DiscoveRx. Cells were seeded into a 96-well white assay plate at 50,000 cells/well/94 μl assay buffer (Hank's Buffered Saline Solution, 10 mM HEPES, 0.1% fatty acid-free BSA, pH 7.4) and immediately assayed in suspension. Forskolin was added to 20 μM (5 μl of 400 μM stock) simultaneously with a 12-point dose response curve of compound at 0-10 μM (1 μl of 100× stock in 100% DMSO), and cells were incubated for 30 minutes. A cAMP standard curve is run as an assay control. A CXCL11 dose response was included to determine maximum efficacy. Direct detection of cAMP was carried out using the DiscoveRx HitHunter cAMP kit according to manufacturer's instructions, and luminescence was read using a SpectraMax M5 plate reader.
The CXCR3 cAMP agonist assay compound EC50 is denoted as follows: + denotes activity <0.050++ denotes activity between 0.050 and 0.25+++ denotes activity between 0.25 and 0.5 μM, and ++++ denotes activity >0.5 μM.

`Cc1cc(NC(=O)[C@H](CCCCN)NC(=O)[C@@H]2Cc3ccccc3CN2C(=O)CCC(=O)c2ccc(F)cc2)ccc1Cl` gave an EC50 of 50 to 250 nM.
